The record followed here is patent publication US20070020706A1 (UNIVERSITY HOSPITALS OF CLEVELAND, published 2007).

By UniProt entry, the sequences of proteins in these tests, tags left out.
UniProt P35626: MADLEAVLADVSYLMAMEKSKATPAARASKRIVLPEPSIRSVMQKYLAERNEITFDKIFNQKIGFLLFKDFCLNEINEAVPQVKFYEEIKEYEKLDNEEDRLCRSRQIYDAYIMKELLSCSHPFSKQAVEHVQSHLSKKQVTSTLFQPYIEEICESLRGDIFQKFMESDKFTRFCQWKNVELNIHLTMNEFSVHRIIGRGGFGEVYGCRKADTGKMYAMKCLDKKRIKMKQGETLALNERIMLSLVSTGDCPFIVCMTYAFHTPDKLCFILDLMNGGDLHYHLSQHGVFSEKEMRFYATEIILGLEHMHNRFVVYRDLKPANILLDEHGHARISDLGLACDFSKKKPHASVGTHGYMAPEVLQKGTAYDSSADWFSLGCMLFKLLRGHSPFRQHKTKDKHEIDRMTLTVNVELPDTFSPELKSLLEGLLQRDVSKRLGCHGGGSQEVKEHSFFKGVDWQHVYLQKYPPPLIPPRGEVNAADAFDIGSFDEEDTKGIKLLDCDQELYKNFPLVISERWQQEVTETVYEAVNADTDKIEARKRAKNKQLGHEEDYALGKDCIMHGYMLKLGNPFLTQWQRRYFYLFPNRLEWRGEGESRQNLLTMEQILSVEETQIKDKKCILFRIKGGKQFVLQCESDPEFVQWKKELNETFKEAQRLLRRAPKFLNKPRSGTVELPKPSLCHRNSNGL
UniProt P32121: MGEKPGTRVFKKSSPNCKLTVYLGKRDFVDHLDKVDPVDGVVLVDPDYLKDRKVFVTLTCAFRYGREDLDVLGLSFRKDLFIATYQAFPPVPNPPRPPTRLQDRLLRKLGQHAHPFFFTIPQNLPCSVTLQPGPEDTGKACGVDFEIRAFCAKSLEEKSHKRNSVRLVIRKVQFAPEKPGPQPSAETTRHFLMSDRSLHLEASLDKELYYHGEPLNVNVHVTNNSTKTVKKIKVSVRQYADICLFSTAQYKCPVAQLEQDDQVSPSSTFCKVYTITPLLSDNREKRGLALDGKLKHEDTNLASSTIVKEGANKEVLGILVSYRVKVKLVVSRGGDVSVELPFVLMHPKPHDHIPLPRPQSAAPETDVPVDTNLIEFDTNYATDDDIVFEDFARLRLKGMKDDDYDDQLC

Sequences and labels used below:
B2: full-length human P2X7 receptor (receptor)
chain: MPACCSCSDVFQYETNKVTRIQSMNYGTIKWFFHVIIFSYVCFALVSDKLYQRKEPVISSVHTKVKGIAEVKEEIVENGVKKLVHSVFDTADYTFPLQGNSFFVMTNFLKTEGQEQRLCPEYPTRRTLCSSDRGCKKGWMDPQSKGIQTGRCVVHEGNQKTCEVSAWCPIEAVEEAPRPALLNSAENFTVLIKNNIDFPGHNYTTRNILPGLNITCTFHKTQNPQCPIFRLGDIFRETGDNFSDVAIQGGIMGIEIYWDCNLDRWFHHCHPKYSFRRLDDKTTNVSLYPGYNFRYAKYYKENNVEKRTLIKVFGIRFDILVFGTGGKFDIIQLVVYIGSTLSYFGLAAVFIDFLIDTYSSNCCRSHIYPWCKCCQPCVVNEYYYRKKCESIVEPKPTLKYVSFVDESHIRMVNQQLLGRSLQDVKGQEVPRPAMDFTDLSRLPLALHDTPPIPGQPEEIQLLRKEATPRSRDSPVWCQCGSCLPSQLPESHRCLEELCCRKKPGACITTSELFRKLVLSRHVLQFLLLYQEPLLALDVDSTNSRLRHCAYRCYATWRFGSQDMADFAILPSCCRWRIRKEFPKSEGQYSGFKSPY
notes: Expressed from cDNA in HEK-293 cells or endogenous in human cells and tissues (CaSki, HeLa, cervical tissue); Mostly assayed in cell extracts on immunoblots, where it runs as 65, 75 and 85 kDa forms; also called P2X7-RFL; P2X7-WT

No constants are given. Whether binding was seen depends on the method and setting. Binding seen in cells or lysates may run through a third protein. Some entries that bind do so weakly or less than the wild type. For some assays here: Sequences can lack the tags named with a protein.

Assay [1] has as its target B2. Nature of the assay: co-immunoprecipitation from ATP-treated CaSki lysates: IP anti-P2X7, blot anti-GRK-3.
In assay [2] the target is B2. The experiment in a line: co-immunoprecipitation from ATP-treated CaSki lysates.
Assay [3] has as its target T1, P2X7(Myc), full-length P2X7 with an N-terminal myc tag (human) (UniProt Q99572).
T1 sequence: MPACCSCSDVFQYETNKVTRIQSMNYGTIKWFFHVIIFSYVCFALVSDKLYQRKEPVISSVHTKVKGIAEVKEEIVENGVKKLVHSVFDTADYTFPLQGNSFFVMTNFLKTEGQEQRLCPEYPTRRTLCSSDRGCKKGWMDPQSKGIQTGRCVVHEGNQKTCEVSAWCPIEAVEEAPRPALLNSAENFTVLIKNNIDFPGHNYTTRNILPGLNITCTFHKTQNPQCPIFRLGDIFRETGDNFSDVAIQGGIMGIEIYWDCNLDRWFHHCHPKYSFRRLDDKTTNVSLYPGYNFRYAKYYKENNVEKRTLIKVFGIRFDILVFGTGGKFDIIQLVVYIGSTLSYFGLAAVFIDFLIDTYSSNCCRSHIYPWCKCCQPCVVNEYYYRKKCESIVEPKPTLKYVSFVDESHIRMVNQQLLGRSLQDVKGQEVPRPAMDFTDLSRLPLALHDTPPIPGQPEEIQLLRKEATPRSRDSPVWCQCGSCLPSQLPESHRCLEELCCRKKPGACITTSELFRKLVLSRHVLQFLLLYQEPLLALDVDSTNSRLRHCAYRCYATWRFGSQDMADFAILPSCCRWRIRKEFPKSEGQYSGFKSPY
The experiment in a line: co-immunoprecipitation from ATP-treated HEK-293-c-Myc-hP2X7-R lysates.

Assay [4] addresses B2. Nature of the assay: co-immunoprecipitation from ATP-treated CaSki lysates: IP anti-P2X7, blot anti-β-arrestin-2.
Assay [5] concerns the target T2, N-HA-P2X7-WT, full-length P2X7 with an N-terminal HA tag (human) (UniProt Q99572).
T2 sequence: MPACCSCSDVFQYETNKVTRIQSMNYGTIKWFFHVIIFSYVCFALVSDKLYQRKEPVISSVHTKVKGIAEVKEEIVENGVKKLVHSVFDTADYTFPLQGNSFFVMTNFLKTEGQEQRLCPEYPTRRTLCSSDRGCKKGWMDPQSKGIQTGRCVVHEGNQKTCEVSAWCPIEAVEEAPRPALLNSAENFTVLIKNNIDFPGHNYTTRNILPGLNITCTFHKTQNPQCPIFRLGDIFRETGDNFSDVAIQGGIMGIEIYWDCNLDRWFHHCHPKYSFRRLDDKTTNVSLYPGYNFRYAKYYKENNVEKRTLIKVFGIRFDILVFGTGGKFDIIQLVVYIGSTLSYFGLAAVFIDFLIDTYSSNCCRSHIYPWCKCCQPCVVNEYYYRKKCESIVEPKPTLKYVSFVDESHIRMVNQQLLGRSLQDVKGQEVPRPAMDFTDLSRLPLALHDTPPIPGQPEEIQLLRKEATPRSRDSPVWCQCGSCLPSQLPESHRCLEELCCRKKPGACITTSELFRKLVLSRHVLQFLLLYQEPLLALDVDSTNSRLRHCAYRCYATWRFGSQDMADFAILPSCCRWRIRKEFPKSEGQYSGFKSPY
The experiment in a line: co-immunoprecipitation in co-transfected HEK293 cells.

Assay [6] addresses T3, N-HA-P2X7-j, truncated P2X7-j with an N-terminal HA tag (human) (UniProt Q99572).
T3 sequence: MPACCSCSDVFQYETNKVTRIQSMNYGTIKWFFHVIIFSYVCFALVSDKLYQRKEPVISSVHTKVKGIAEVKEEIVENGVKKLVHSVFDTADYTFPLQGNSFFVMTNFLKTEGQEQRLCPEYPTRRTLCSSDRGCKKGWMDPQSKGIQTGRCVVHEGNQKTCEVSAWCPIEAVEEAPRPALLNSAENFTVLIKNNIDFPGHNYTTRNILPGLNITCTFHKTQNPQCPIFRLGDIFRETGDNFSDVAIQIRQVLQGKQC
The assay is described as above.

In assay [7] the target is T2, N-HA-P2X7-WT, full-length P2X7 with an N-terminal HA tag (human). The experiment in a line: co-immunoprecipitation in MDCK cells: IP anti-Myc, blot anti-HA.

“G-protein coupled receptor kinase 3 (from UniProt P35626 1-688) (enzyme)”: the binding entry in assay [1], in assay [2] and in assay [3] was “binds” each time.

For “β-arrestin-2 (from UniProt P32121 1-409)”, the binding result in assay [4] and in assay [3] was “binds” each time.

B1: truncated P2X7-j receptor protein (receptor)
chain: MPACCSCSDVFQYETNKVTRIQSMNYGTIKWFFHVIIFSYVCFALVSDKLYQRKEPVISSVHTKVKGIAEVKEEIVENGVKKLVHSVFDTADYTFPLQGNSFFVMTNFLKTEGQEQRLCPEYPTRRTLCSSDRGCKKGWMDPQSKGIQTGRCVVHEGNQKTCEVSAWCPIEAVEEAPRPALLNSAENFTVLIKNNIDFPGHNYTTRNILPGLNITCTFHKTQNPQCPIFRLGDIFRETGDNFSDVAIQIRQVLQGKQC
notes: Untagged P2X7-j, expressed in HEK-293 cells or endogenous in human cancer cell lines; Runs as 42-45 kDa bands; also called P2X7-RTR
For the molecule B1, the binding entry in assay [5] and in assay [6] was “binds” throughout.

As for B2, the binding result in assay [7] was “binds”.
